This is an account of results in paper PMC6657086.

Sequences of proteins named here, by UniProt entry; tags and fusion partners are left off.
UniProt P17096: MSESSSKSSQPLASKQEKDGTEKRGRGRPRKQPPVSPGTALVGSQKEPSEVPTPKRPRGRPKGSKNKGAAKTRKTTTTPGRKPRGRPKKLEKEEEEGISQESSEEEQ

The target in this assay is T1, KIFC1-Flag (kinesin family member C1), stably expressed in HepG2 cells (human) (UniProt Q9BW19).
T1 sequence: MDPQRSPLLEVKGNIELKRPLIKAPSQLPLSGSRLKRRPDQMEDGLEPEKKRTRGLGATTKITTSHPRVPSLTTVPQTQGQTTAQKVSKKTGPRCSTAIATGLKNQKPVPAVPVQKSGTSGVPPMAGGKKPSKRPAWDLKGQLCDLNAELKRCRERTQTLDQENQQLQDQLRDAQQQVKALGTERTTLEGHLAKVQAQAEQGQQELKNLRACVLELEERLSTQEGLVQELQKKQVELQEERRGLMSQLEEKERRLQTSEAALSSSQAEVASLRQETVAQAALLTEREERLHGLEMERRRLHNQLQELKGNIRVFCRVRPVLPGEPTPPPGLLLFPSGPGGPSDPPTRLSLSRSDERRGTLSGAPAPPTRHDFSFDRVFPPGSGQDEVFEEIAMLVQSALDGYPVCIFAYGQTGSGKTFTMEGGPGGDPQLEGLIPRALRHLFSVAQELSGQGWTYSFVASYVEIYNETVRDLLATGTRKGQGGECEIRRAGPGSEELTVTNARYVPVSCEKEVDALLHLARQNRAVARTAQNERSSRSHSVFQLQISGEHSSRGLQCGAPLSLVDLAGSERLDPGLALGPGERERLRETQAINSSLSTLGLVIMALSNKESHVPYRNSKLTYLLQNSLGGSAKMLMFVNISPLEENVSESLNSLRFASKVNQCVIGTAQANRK
In words: affinity purification with mass spectrometry; whole cell lysates of HepG2-vector and HepG2-KIFC1-Flag cells precleared with protein A/G beads, immunoprecipitated with Flag-tag antibody; silver staining and mass spectrometry of the precipitates.

No constants are given. Whether binding was seen depends on the method and setting. In cells and extracts the contact can be indirect. Here binding means that the protein was enriched with, or labelled near, the bait; the list need not be complete. Sequences can lack the tags named with a protein.

On to “HMGA1 (high mobility group AT-hook 1), endogenous in HepG2 cells (from UniProt P17096 1-107)”, for which the binding result is recorded as “binds”.
